From paper PMC9792466

Amino acid sequences for entries named in this document (tags omitted). A change or cut given only in a name is not applied to a line headed by its entry.
UniProt P21274: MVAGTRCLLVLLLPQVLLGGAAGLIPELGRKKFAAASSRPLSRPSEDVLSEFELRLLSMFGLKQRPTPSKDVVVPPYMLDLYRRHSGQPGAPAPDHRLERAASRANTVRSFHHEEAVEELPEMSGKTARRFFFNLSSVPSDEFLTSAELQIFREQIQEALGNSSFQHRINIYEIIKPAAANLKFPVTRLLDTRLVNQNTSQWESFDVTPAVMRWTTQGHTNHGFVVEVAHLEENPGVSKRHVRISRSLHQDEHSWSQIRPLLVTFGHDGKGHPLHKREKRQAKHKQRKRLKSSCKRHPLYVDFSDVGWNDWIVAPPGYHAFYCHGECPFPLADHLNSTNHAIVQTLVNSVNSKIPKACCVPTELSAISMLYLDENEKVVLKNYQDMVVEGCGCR

Molecular target: T1, WW domain-containing oxidoreductase (WWOX) (mouse (endogenous in 266-6)) (UniProt Q91WL8)
T1 sequence: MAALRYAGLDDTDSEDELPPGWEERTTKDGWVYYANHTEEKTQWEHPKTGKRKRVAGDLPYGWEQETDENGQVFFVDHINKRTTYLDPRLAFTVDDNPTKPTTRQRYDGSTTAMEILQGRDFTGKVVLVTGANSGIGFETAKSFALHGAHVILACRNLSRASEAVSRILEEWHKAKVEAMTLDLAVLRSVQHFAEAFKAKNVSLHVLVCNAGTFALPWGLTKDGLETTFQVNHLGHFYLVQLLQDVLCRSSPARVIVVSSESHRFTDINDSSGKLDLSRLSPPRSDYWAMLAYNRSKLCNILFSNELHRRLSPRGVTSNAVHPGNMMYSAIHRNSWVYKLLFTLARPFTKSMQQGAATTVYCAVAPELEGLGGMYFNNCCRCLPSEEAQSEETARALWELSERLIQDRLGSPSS
Test: co-IP; endogenous WWOX immunoprecipitated with monoclonal mouse anti-WWOX cocktail antibodies and protein A/G plus agarose beads, overnight at 4 °C, from whole-cell lysates of 266-6 KrasG12D cells not activated or activated with doxycycline for 24 h; lysis buffer 50 mM Tris pH 7.5, 150 mM NaCl, 10% glycerol, 1% NP-40; IgG as control; immunoblot of the precipitate

- binding: binds
Substance: BMP2 (from UniProt P21274)

These are yes or no findings as the source states them, for the method shown. Binding seen in cells or lysates may run through a third protein. A result given as binding can be weak or reduced; the word gives no strength.
